Results are given in words; binding and its absence hold for the method and conditions named. In cells and extracts the contact can be indirect.
Biological target: OLFM4 G438 mutation (UniProt Q6UX06)
Assay: co-IP; GES-1 cells transfected with G438 mutation plasmids; Co-IP for OLFM4 and MYH9; the precipitating antibody is not told

Chains of the proteins cited; added tags and fusions are not shown. Lines headed by an entry give the natural chain unless they say otherwise; changes in a name come on top.
UniProt Q6UX06: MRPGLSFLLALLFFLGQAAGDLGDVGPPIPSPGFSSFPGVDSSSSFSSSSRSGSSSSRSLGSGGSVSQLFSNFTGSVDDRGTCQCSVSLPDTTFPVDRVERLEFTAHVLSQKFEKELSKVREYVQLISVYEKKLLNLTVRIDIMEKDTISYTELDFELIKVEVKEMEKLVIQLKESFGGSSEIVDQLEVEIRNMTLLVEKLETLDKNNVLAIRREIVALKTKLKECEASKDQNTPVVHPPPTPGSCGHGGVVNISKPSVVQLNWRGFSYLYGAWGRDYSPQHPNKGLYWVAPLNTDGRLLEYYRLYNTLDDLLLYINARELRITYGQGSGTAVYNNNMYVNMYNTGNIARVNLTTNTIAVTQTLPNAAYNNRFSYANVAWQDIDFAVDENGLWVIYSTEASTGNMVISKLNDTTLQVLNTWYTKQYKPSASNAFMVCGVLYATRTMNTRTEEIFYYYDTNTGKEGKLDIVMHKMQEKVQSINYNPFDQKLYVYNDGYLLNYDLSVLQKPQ
UniProt P35579: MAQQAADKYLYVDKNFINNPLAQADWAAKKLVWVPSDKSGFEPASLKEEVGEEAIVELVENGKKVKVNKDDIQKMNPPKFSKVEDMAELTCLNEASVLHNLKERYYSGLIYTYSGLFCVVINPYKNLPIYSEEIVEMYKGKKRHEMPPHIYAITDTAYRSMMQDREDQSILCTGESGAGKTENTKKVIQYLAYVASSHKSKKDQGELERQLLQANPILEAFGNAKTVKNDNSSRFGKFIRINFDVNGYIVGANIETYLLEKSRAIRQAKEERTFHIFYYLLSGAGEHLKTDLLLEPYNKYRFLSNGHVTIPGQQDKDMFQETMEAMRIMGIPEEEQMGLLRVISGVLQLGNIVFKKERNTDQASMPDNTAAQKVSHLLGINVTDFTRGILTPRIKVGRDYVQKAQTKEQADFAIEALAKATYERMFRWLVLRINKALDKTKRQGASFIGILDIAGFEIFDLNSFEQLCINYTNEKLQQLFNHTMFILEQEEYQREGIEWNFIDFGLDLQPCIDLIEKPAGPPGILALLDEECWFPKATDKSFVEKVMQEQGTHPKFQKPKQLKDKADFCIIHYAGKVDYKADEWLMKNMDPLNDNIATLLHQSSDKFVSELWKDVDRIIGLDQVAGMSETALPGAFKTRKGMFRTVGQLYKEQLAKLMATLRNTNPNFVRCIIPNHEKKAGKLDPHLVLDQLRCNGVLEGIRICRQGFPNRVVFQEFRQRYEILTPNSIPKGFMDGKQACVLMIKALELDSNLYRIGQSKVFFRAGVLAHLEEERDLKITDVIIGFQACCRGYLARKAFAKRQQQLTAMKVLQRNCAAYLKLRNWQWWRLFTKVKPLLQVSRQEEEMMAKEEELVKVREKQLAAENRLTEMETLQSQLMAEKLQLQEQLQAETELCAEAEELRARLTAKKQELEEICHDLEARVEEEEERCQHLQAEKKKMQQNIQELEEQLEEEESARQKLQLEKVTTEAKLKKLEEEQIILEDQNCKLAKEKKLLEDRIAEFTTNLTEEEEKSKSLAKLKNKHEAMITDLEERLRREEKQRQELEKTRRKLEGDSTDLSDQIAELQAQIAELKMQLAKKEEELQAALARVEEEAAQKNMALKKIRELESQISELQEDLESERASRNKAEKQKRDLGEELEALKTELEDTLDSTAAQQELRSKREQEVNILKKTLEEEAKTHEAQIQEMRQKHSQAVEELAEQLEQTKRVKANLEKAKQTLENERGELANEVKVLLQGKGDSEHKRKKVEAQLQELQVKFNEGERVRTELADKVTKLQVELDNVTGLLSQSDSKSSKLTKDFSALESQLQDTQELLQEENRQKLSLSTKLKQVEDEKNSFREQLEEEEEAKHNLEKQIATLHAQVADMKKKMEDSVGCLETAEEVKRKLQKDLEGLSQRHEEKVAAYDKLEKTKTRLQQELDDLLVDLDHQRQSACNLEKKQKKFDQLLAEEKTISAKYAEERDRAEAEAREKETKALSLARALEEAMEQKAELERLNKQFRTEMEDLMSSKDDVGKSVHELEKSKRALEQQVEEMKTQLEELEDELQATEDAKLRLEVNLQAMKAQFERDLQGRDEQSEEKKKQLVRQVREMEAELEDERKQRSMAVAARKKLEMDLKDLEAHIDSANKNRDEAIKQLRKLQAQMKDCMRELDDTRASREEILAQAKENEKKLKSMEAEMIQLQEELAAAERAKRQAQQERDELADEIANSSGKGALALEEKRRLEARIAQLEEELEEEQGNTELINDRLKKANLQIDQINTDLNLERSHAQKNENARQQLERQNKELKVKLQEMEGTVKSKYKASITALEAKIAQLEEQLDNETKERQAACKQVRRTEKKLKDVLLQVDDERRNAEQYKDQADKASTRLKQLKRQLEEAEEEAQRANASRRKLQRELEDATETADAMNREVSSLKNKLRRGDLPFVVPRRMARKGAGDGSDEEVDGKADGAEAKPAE

Myosin heavy chain 9 (MYH9) (from UniProt P35579 1-1960)
binding: no binding

Reference: publication PMC11157765
